These are yes or no findings as the source states them, for the method shown. Binding seen in cells or lysates may run through a third protein. Binding calls can cover weak binding; strength is not graded here. Sequences can lack the tags named with a protein.
Biological target: GFP-tagged Calhm6 fragment, CHD domain (residues 204-315)
Assay: co-IP; 293T lysates, Flag-CaMK4 or Flag-Chp1 with fragments of GFP-tagged Calhm6; anti-GFP IP, blot with tag antibodies (Figure 7K, 7L)

- binding: binds
B1: Flag-tagged CaMK4 (protein, UniProt P08414 1-469)
chain: MLKVTVPSCPSSPCSSVTASTENLVPDYWIDGSNRDPLGDFFEVESELGRGATSIVYRCKQKGTQKPYALKVLKKTVDKKIVRTEIGVLLRLSHPNIIKLKEIFETPTEISLVLELVTGGELFDRIVEKGYYSERDARDAVKQILEAVAYLHENGIVHRDLKPENLLYATPAPDAPLKIADFGLSKIVEHQVLMKTVCGTPGYCAPEILRGCAYGPEVDMWSVGIITYILLCGFEPFYDERGDQFMFRRILNCEYYFISPWWDEVSLNAKDLVKKLIVLDPKKRLTTFQALQHPWVTGKAANFVHMDTAQKKLQEFNARRKLKAAVKAVVASSRLGSASSSHTSIQENHKASSDPPSTQDAKDSTDLLGKKMQEEDQEEDQVEAEASADEMRKLQSEEVEKDAGVKEEETSSMVPQDPEDELETDDPEMKRDSEEKLKSVEEEMDPMTEEEAPDAGLGVPQQDAIQPEY
